Experimental data from patent publication US20160009800A1.
These are yes or no findings as the source states them, for the method shown. Binding can be weak; no strength is given.

Protein sequences, listed by entry. Tags and fused reporters are not part of them. Lines headed by an entry give the natural chain unless they say otherwise; changes in a name come on top.
UniProt P06213: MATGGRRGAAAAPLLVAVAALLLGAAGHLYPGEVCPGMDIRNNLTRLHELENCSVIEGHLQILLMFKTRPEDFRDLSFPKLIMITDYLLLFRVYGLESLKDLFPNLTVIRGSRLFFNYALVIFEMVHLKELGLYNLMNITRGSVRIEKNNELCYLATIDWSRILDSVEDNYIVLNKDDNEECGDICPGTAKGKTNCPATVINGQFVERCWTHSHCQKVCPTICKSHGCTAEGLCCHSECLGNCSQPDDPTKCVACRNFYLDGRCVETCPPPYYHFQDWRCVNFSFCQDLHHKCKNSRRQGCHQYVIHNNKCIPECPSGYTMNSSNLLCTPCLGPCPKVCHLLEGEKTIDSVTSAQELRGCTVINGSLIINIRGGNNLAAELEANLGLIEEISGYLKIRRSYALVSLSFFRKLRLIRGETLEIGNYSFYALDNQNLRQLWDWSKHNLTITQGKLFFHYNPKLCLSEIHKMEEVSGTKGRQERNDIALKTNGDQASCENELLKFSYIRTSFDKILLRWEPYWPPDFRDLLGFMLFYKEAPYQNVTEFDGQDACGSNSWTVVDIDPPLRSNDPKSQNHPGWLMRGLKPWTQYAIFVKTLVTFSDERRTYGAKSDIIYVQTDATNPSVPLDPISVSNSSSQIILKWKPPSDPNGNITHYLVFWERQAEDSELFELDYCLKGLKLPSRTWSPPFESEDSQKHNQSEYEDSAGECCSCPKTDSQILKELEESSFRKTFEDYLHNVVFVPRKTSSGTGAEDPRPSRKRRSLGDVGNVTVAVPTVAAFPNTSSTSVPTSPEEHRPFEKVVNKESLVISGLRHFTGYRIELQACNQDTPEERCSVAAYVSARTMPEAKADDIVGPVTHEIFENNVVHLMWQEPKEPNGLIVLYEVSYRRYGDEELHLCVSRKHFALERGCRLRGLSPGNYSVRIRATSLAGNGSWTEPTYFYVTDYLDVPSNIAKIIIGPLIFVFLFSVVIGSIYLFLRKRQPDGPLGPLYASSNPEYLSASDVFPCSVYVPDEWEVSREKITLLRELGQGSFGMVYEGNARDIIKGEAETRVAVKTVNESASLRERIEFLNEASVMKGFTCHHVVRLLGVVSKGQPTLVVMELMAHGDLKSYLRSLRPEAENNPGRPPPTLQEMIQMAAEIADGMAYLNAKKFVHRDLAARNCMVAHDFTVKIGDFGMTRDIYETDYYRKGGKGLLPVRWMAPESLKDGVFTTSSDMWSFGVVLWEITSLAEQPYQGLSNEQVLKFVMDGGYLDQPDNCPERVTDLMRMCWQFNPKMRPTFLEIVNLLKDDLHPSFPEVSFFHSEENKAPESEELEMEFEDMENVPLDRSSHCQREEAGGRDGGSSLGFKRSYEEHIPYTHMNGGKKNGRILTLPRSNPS

Assays:
[1] = target: human insulin receptor (human) (UniProt P06213); assay: flow cytometry, biotinylated IgG on hINSR8-CHOK1 cells
[2] = target: human insulin receptor (human) (UniProt P06213); assay: FACS on monocytes of human PBMC, without insulin
[3] = target: human insulin receptor (human) (UniProt P06213); assay: KinExA antibody depletion by hINSR8-CHOK1 cells
[4] = target: cynomolgus monkey insulin receptor (cynomolgus monkey); assay: FACS on CHO cells expressing cynomolgus insulin receptor, without insulin
[5] = target: human insulin receptor (human) (UniProt P06213); assay: FACS on CHO cells expressing human insulin receptor, without insulin
[6] = target: human insulin receptor (human) (UniProt P06213); assay: FACS on monocytes of human PBMC and on CHO cells expressing human insulin receptor, without insulin
[7] = target: cynomolgus monkey insulin receptor (cynomolgus monkey); assay: FACS on monocytes of cynomolgus PBMC and on CHO cells expressing cynomolgus insulin receptor, without insulin

binding [1] | Binder | further results
binds | Ab087 (antibody, V domains shown) VH: EVQLVESGGGLVKPGGSLKLSCAASGFTFSNYAMSWVRQTPEKRLEWVATISDGGHYIDYPDNVKGRFTISRDNAKNNLYLQMSHLRSEDSAMYYCARATNFAYWGQGTLVTVSA VL: DIQMTQSPSSLSASLGGKVTITCKASQHINKYIAWYQHKPGKGPRLLIHYTSTLQPGIPSRFSGSGSGRDYSFSISNLEPEDIATYYCLQYDNLYTFGGGTKLEIKR | –
– | Ab010 (antibody, V domains shown) VH: EVQLQQSGPVLVKPGASVKMSCKAAGYTFTDSYMNWVKQSHGKSLEWIGDINPYNGGTSYNQHFKGKATLTVDKSSSTAYMELNSLTSEDSAVYYCARRRGAMDYWGQGTSVTVSS VL: DVQIIQSPSYLAASPGETITINCRASKSISKYLAWYQEKPGKTNKLLIYSGSTLQSGIPSRFSGSGSGTDFTLTISSLEPEDFAMYYCQQHNEYPLTFGAGTKLELKR | binding [2]: binds
binds | Ab062 (antibody, IgG2, V domains shown) VH: QVQLQQWGAGLLKPSETLSLTCAVYGGSFSGYYWSWIRQPPGKGLEWIGEINHSGSTNYNPSLKSRVTISVDTSKNQFSLKLSSVTAADTAVYYCARGPSGWYIREFDYWGQGTLVTVSS VL: QSVLTQPPSVSGAPGQRVTISCTGSSSNIGAGYDVHWYQQLPGTAPKLLIYGNSNRPSGVPDRFSGSKSGTSASLAITGLQAEDEADYYCQSYDSSLSGSGVFGGGTKVTVL | binding [3]: binds; binding [4]: binds; binding [5]: binds
binds | Ab037 (antibody, V domains shown) VH: EVQLLESGGGLVQPGGSLRLSCAASGFTFSSYEMNWVRQAPGKGLEWVSSISSSSRYADVANSVVGRFTISRDNSKNTLYLQMNSLRAEDTAVYYCARGEWLDHFDYWGQGTLVTVSS VL: QSVLTQPPSASGTPGQRVTISCSGSSSNIGNSAVNWYQQLPGTAPKLLIYDNNKRPSGVPDRFSGSKSGTSASLAISGLRSEDEADYYCQVWDSGTAVFGGGTKLTVLG | binding [3]: binds; binding [6]: binds; binding [7]: binds
binds | Ab019 (antibody, V domains shown) VH: QVQLQQSEAELVKPGASVKISCKASGYTFSNYWMNWVKQRPGKGLEWIGQIYPGDGDTNYNGKFKGKATLIADKSSSTAYMQLSSLTSEDSAVYFCARGVSGYGAMDYWGQGTSVTVSS VL: DLVLTQSPASLAVSLGQRATISCRASKSVSTSGYSYIHWYQQKPGQPPKLLIYLASNLESGVPARFSGSGSGTDFTLNIHPVEEEDAATYYCQHNREPRTFGGGTNLEIKR | –
binds | Ab088 (antibody, V domains shown) VH: QVQLQQSEAELVKPGASVKISCKASGYTFSSYWMSWVKQRPGKGLEWIGQIYPGDGDTNYNGKFKGKATLTADKSSGTAYMQLSSLTSEDSAVYFCARGVSGYGAMDYWGQGTSVTVSS VL: DLVLTQSPASLAVSLGQRATISCRASKSVTTSGYSYIHWYQQKPGQPPKLLIYLASNLESGAPARFSGSGSGTDFTLNIHPVEEEDAGNYYCQHNREPRTFGGGTKLEIKR | –
binds | Ab020 (antibody, V domains shown) VH: QVQLQQSEAELVKPGASVKISCKASGYTFSSYWMNWVKQRPGKGLEWIGQIYPGDGDTNYNVKFKGKATLTADKSSGTAYMQLSSLTSEDSAVYFCARGVSGYGAMDYWGQGTSVTVSS VL: DLVLTQSPASLAVSLGQRATISCRASKSVSTSGYSYIHWYQQKPGQPPKLLIYLASNLESGVPARFSGSGSGTDFTLNIHPVEEEDAATYYCQHNRELRTFGGGTKLEIKR | –
binds | Ab089 (antibody, V domains shown) VH: QVQLQQSEAELVKPGASVKISCKASGYTFSSYWMNWVKQRPGKGLEWIGQIYPGDGDTNYNVKFKGKATLTADKSSGTAYMQLSSLTSEDSAVYFCARGVSGYGAMDYWGQGTSVTVSS VL: DLVLTQSPASLAVSLGQRATISCRASKSVSTSGYSYIHWYQQKPGQPPKLLIYLASNLESGVPARFSGSGSGTDFTLNIHPVEEEDAATYYCQHNRELRTFGGGTKLEIKR | –
binds | Ab086 (antibody, IgG2, V domains shown) VH: EVQLVETGGGVVRPGGSLRLSCAASGFTFGDYGMSWVRQAPGKGLEWVSGINWNGGSTGYADSVKGRFTISRDNAKNSLYLQMNSLRAEDTALYYCARDILGVEFDYWGQGTLVTVSS VL: QSALTQPASVSGSLGQSITISCTGTSSDIGLYKFVSWYQQHPGKAPKLMIYDVSYRPSGVSNRFSGSSSGNTASLTISGLQAEDEADYYCNSYTSSSTLVVFGGGTKLTVL | –
